Data as given in ChEMBL document CHEMBL4303122, “Identification of potential treatments for COVID-19 through artificial intelligence-enabled phenomic analysis of human cells infected with SARS-CoV-2” (2020).
The full ranking holds about 1,600 compounds; the median of “Hit score” is about 0.13, and the highest 2% start at about 0.46. This is one part of the list.

tested on: SARS-CoV-2; assay: Antiviral activity against SARS-CoV-2 (USA-WA1/2020 strain) measured by imaging in HRCE cells at MOI 0.4 after 96 hrs (reported as hit score from 0-1 for on-disease vs off-disease activity: scores >0.6 considered hits); type: functional, Homo sapiens

Point of comparison: `C/C(O)=C(\C#N)C(=O)Nc1ccc(C(F)(F)F)cc1` [TERIFLUNOMIDE], Hit score 0.133. Against it:
- O=C(Nc1nc(-c2cc(Cl)cs2)c(N2CCN(C3CCCCC3)CC2)s1)c1cnc(N2CCC(C(=O)O)CC2)c(Cl)c1 [AVATROMBOPAG] — lower, 0.04204
- CO[C@]12C[C@@H](COC(=O)c3cncc(Br)c3)CN(C)[C@@H]1Cc1cn(C)c3cccc2c13 [NICERGOLINE] — lower, 0.1321
- Cc1cc(C#N)cc(C)c1Oc1nc(Nc2ccc(C#N)cc2)nc(N)c1Br [ETRAVIRINE] — lower, -0.08885
- CC1(C)S[C@@H]2[C@H](NC(=O)COc3ccccc3)C(=O)N2[C@H]1C(=O)O [PENICILLIN V] — lower, 0.002553
- CC(C)NC(=N)NC(=N)Nc1ccc(Cl)cc1 [PROGUANIL] — lower, 0.102
- c1cc(CN2CCCNCCNCCCNCC2)ccc1CN1CCCNCCNCCCNCC1 [PLERIXAFOR] — lower, 0.1129
- COC(=O)N[C@@H](C)CNc1nccc(-c2cn(C(C)C)nc2-c2cc(Cl)cc(NS(C)(=O)=O)c2F)n1 [ENCORAFENIB] — higher, 0.2561
- CN(Cc1ccc(C(C)(C)C)cc1)Cc1cccc2ccccc12 [BUTENAFINE] — higher, 0.15
- Cc1ccccc1C(=O)Nc1ccc(C(=O)N2CCCC(N(C)C)c3ccccc32)cc1 (configuration not stated) [MOZAVAPTAN] — higher, 0.1836
- CC(=O)CC(c1ccc([N+](=O)[O-])cc1)c1c(O)c2ccccc2oc1=O (configuration not stated) [ACENOCOUMAROL] — higher, 0.2854
- Cn1nnc(-c2ccc(-c3ccc(N4C[C@H](CO)OC4=O)cc3F)cn2)n1 [TEDIZOLID] — higher, 0.1987
- Cc1cccc(Nc2ccncc2S(=O)(=O)NC(=O)NC(C)C)c1 [TORSEMIDE] — lower, 0.1161
- CC(C)OC(=O)[C@H](C)N[P@](=O)(CO[C@H](C)Cn1cnc2c(N)ncnc21)Oc1ccccc1 [TENOFOVIR ALAFENAMIDE] — higher, 0.2046
- C/C(=C\C(=O)OCCCCCCCCC(=O)O)C[C@@H]1OC[C@H](C[C@@H]2O[C@H]2[C@@H](C)[C@H](C)O)[C@@H](O)[C@H]1O [MUPIROCIN] — lower, 0.06424
- CC(C)Cn1cnc2c(N)nc3ccccc3c21 [IMIQUIMOD] — lower, 0.02596
- NC(=O)N1c2ccccc2CC(=O)c2ccccc21 [OXCARBAZEPINE] — higher, 0.212
- NC1=NCC2c3ccccc3Cc3ccccc3N12 (configuration not stated) [EPINASTINE] — lower, -0.03911
- O=C(O)CCC(=O)O [SUCCINIC ACID] — higher, 0.1442
- Cc1cccn2c(=O)c(-c3nnn[nH]3)cnc12 [PEMIROLAST] — lower, 0.101
- CCOCCn1c(N2CCCN(C)CC2)nc2ccccc21 [EMEDASTINE] — lower, 0.1159
- O=S(=O)(c1cccc2c(Cl)cccc12)N1CCCNCC1 — higher, 0.1361
- C[N+]12CCCC[C@@H]1CCC(=C(c1cccs1)c1cccs1)C2 (some centres not stated) — higher, 0.195
- O=C(CCCN1CCC2(CC1)C(=O)NCN2c1ccccc1)c1ccc(F)cc1 [SPIPERONE] — lower, 0.05718
- COc1cc2c(cc1Cc1cccc(Cl)c1F)c(=O)c(C(=O)O)cn2[C@H](CO)C(C)C — higher, 0.1404
- COc1ccc2c(c1)c(CC(=O)OCC(=O)O)c(C)n2C(=O)c1ccc(Cl)cc1 [ACEMETACIN] — lower, 0.1062
- CC(=O)NC[C@H]1CN(c2ccc(N3CCOCC3)c(F)c2)C(=O)O1 [LINEZOLID] — lower, 0.0228
- Cc1nccn1CC1CCc2c(c3ccccc3n2C)C1=O (configuration not stated) [ONDANSETRON] — lower, 0.03849
- CCOCCOC(=O)/C=C/c1ccc(OC)cc1 [CINOXATE] — higher, 0.1586
- CN(C)C(=O)c1cc2cnc(Nc3ccc(N4CCNCC4)cn3)nc2n1C1CCCC1 [RIBOCICLIB] — lower, 0.1227
- Cc1cccc(C)c1NC(=O)CN1CCN(CCCC(c2ccc(F)cc2)c2ccc(F)cc2)CC1 [LIDOFLAZINE] — higher, 0.2006
- Nc1nnc(-c2cccc(Cl)c2Cl)c(N)n1 [LAMOTRIGINE] — lower, 0.0758
- C[C@@H]1CC[C@H]2C(C)(C)[C@H]3C[C@@]12CC[C@@]3(C)O [CEDROL] — lower, 0.05802
- O=C(OCC(O)CO)c1ccccc1Nc1ccnc2c(C(F)(F)F)cccc12 (configuration not stated) [FLOCTAFENINE] — higher, 0.3441
- CC(=O)NC(CCC(N)=O)C(=O)O (configuration not stated) — higher, 0.2051
- CC(=O)O[C@]1(C(C)=O)CC[C@H]2[C@@H]3C=C(Cl)C4=CC(=O)CC[C@]4(C)[C@H]3CC[C@@]21C [CHLORMADINONE ACETATE] — higher, 0.249
- CNC(C)CCC=C(C)C.CNC(C)CCC=C(C)C.O=C(O)[C@@H](O)[C@H](O)[C@H](O)[C@@H](O)C(=O)O [ISOMETHEPTENE MUCATE] — lower, 0.06837
- NCC1(CC(=O)O)CCCCC1 [GABAPENTIN] — lower, 0.1022
- O=c1ncnc2n([C@H]3O[C@@H](CO)[C@H](O)[C@@H]3O)[nH]cc1-2 [ALLOPURINOL RIBOSIDE] — higher, 0.1953
- N[C@@H](CC(=O)N1CCn2c(nnc2C(F)(F)F)C1)Cc1cc(F)c(F)cc1F [SITAGLIPTIN] — higher, 0.1962
- CN(C)C(=O)N[C@H]1CC[C@H](CCN2CCN(c3cccc(Cl)c3Cl)CC2)CC1 [CARIPRAZINE] — higher, 0.1969
- O=C(O[C@H]1C[C@H]2CC[C@@H](C1)[N+]21CCCC1)C(O)(c1ccccc1)c1ccccc1 [TROSPIUM] — lower, 0.08693
- CC(O)(CS(=O)(=O)c1ccc(F)cc1)C(=O)Nc1ccc(C#N)c(C(F)(F)F)c1 (configuration not stated) [BICALUTAMIDE] — higher, 0.2724
- N=C(N)N1CCc2ccccc2C1 [DEBRISOQUIN] — higher, 0.1524
- CC(=O)/N=c1/sc(S(N)(=O)=O)nn1C [METHAZOLAMIDE] — higher, 0.146
- CC1(C)S[C@@H]2[C@H](NC(=O)Cc3ccccc3)C(=O)N2[C@H]1C(=O)O [PENICILLIN G] — higher, 0.164
- COCCCOc1cc(C[C@@H](C[C@H](N)[C@@H](O)C[C@H](C(=O)NCC(C)(C)C(N)=O)C(C)C)C(C)C)ccc1OC — higher, 0.2097
